In paper PMC2726290, “Decoding of Methylated Histone H3 Tail by the Pygo-BCL9 Wnt Signaling Complex” (Molecular Cell, 2008):
Positions count from the first letter of the chain named. Results are given in words; binding and its absence hold for the method and conditions named. Some entries that bind do so weakly or less than the wild type.

Experiments:
[1] = target: T1, Drosophila Pygo PHD finger (amino acids 747-808), free (Drosophila) (UniProt Q9V9W8); assay: co-expression and co-purification; GST-PHD and MBP-HD1 coexpressed from a bicistronic vector in E. coli; complex purified; both purified
T1 sequence: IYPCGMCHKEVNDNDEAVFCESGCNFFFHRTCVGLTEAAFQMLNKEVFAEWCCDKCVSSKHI

[2] = target: T2, hPygo1 PHD finger A356E (human) (UniProt Q9Y3Y4); assay: complex formation of PHD mutants with HD1; Figure S1D; data not shown
T2 sequence: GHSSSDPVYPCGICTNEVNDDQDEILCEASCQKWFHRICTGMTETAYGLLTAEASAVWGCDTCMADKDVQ

[3] = target: T3, hPygo1 PHD finger V350E (human) (UniProt Q9Y3Y4); assay: as above
T3 sequence: T2 sequence with V18E, E24A

[4] = target: T4, hPygo1 PHD finger W366E (human) (UniProt Q9Y3Y4); assay: as above
T4 sequence: T2 sequence with E24A, W34E

[5] = target: T5, hPygo1 PHD finger (amino acids 333-402), free (human) (UniProt Q9Y3Y4); assay: crystal structure; binary PHD-HD1 complexes (hPHD_W366F-HD1, WT1, WT2); vapor diffusion at 19°C; both purified
T5 sequence: T2 sequence with E24A

[6] = target: T6, hPygo1 PHD finger W366F (human) (UniProt Q9Y3Y4); assay: as above
T6 sequence: T2 sequence with E24A, W34F

[7] = target: T5, hPygo1 PHD finger (amino acids 333-402), free (human); assay: SEC; PHD and HD1 coexpressed in bacteria, complex purified and run on gel filtration (Figure S1); both purified
[8] = target: T7, hPygo1 PHD finger (amino acids 340-402) (human) (UniProt Q9Y3Y4); assay: crystal structure; ternary complexes: 10 mg/ml hPHD(340-402)-HD1 mixed with 5x molar excess of H3K4me2 9-mer or H3R2me2aK4me2 18-mer peptide; both purified
T7 sequence: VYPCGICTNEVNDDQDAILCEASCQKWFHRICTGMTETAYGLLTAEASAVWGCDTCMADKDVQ

Measured: binding

B1: Lgs HD1 domain (amino acids 316-350) (domain or fragment, UniProt Q961D9 316-350)
chain: YMQQQNHIFVFSTQLANKGAESVLSGQFQTIIAYH
binds: [1]

B2: hBCL9 HD1 domain (amino acids 177-205) (domain or fragment, UniProt O00512 177-205)
chain: VYVFSTEMANKAAEAVLKGQVETIVSFHI
not listed: [1]
binds: all other assays above
